Assay results: the supplement of paper PMC3334620
Whole data set: some 33,000 sequences, median “E-score (-0.5 to 0.5)” near -0.0059, cut for the highest 2% near 0.26. The list shows a part of the results.

These sequences were tested against T1, Cin5 (UniProt P40917) (assay: PBM E-score (8-mer binding enrichment) (E-score (-0.5 to 0.5)); higher = stronger / more preferred TF binding). Conditions: protein concentration: 100 nM; construct: GST-full length.
T1 sequence: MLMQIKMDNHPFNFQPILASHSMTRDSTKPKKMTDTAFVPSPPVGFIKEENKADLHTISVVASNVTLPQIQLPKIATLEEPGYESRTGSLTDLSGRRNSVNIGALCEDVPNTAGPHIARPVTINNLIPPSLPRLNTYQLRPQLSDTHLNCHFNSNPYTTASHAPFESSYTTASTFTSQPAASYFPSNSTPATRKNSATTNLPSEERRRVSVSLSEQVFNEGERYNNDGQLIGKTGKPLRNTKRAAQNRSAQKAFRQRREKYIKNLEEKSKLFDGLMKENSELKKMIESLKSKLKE
Procedure, shortened: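 PURExpress in vitro transcription/translation supplied GST-tagged yeast transcription factors, either full-length or DNA-binding domain. Applied at about 100-200 nM to universal all-10-mer Agilent arrays double-stranded by primer extension, the bound protein was detected with fluorescent anti-GST. E-scores, modified Wilcoxon-Mann-Whitney statistics, were given by the Universal PBM Analysis Suite to ungapped eight-base words pooled with their reverse complements after masliner normalisation.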

Sequence	PBM E-score
ATTGCCGG	-0.065
TATTGGAA	-0.0281
ACTTTACA	0.0908
CGCTCTAC	-0.0468
AGAAACCG	-0.00823
GTCTGATA	-0.0398
GCAGGGGC	-0.128
CACGGAGA	-0.00118
AACATGTT	-0.00177
GCCGATAA	-0.12
CTCCAGGA	-0.221
CGGGCACA	-0.123
CGACCGCC	-0.117
TAAAATCA	0.101
ACCTCAAT	-0.00034
AAGTTTCG	-0.00445
AAGTGATA	-0.0276
TAATTGGA	0.0455
AGTACTTG	0.0512
CGATCAGA	-0.114
CGAATATA	0.122
CAAGCCTC	-0.179
TTCAGAAA	-0.211
ATGTAATG	0.193
AACAGGCC	-0.226

Sequence	PBM E-score
CCAAACCC	0.0807
CGGGGCGC	-0.211
ACGGCGGG	-0.00798
GGAGCAAA	0.0065
GGGTCAAA	0.0244
AGTCCCTA	-0.176
ATAGGATA	0.0444
ATGCGCAG	-0.13
GTTTCCAA	-0.0235
CTAACAAC	0.0568
ACGTATAG	-0.0505
AACTTACC	0.00363
GACTAAAA	-0.013
GCTTCCAA	-0.0421
CCGGTATA	0.0476
ACGGATCA	0.121
AAATTCTA	-0.0974
AGTCAATA	0.117
GCTTTGCC	-0.186
AGCGGCGA	0.193
TTAACTAA	0.343
AACCTGGG	-0.124
GCAAAGTA	0.175
TCCCCACA	-0.143
CCCGCACA	-0.0333

Sequence	PBM E-score
AAGGTTGT	0.0748
AAAGCTTG	0.0216
GGGTTCTA	-0.0388
AAAAGCCC	-0.0247
AGTGAGGA	-0.079
CTTCTATA	-0.0912
CATACGAG	-0.0517
AATACCCT	0.045
GCGCAGGA	-0.201
CCTTACCC	-0.154
CACTGACA	0.0409
CATCAATG	0.0915
CTGTTCAC	8e-05
CTCCGGTA	-0.0531
AAAGTCTG	-0.015
TCAGCTCA	0.2
ATTACCCG	0.0913
ATGCTTCC	-0.0337
ACACGGCA	-0.128
CTCCGCTC	-0.0442
ACAGGCAG	0.0102
ACACCTGA	0.139
GTTAGCGA	0.0366
AAGGAATC	-0.0453
AGCCTCAA	-0.212

Sequence	PBM E-score
GCCTTCTA	-0.149
ACCTTATC	0.0648
CCGGTGGC	-0.263
AAGACGGT	-0.171
GTTGTGCA	-0.0995
AACTTCGT	-0.032
CCCACCCG	0.293
ATGTACTC	0.0954
ACCCAATG	-0.0441
ACGGCATC	-0.0378
GTTTTTGA	0.0409
CCGTGGCC	-0.228
ATCCATGA	0.0386
CAGGACCA	-0.107
CTGAAAAG	0.0629
GAACGTTC	-0.134
ATTGCCAC	0.0224
AGCGATTA	0.127
GAGCGTAC	-0.075
AGCCGAAG	-0.0693
CTGAGCAA	-0.0216
CCTTGCAC	-0.0869
GACGTCTC	-0.0746
GAGTGAAA	0.118
ATCTAGGG	0.0573

Sequence	PBM E-score
TCCAACCA	0.0295
ATCGTGCC	-0.155
CAGATCTC	-0.0708
AGGCTCCC	-0.293
AGCACACC	-0.128
AACCAAAC	-0.0491
ACCAAAAA	0.234
ATTTAGGC	0.104
ATCCTAGG	-0.113
CCTACAGA	-0.187
ACCCCGGT	-0.186
CTGGAGCC	-0.204
AATGGGGT	0.101
GGTTAAAC	-0.00883
CGTAGTTC	-0.162
GCCGAGGC	0.00479
ATTTGGGC	0.00638
CTTAAGGC	-0.0955
ATCGCTTC	0.00288
GCAAACCA	0.0992
CGAGCACG	0.0135
AGCGAGAT	0.114
CTGCAGGC	-0.329
GCTAAACA	0.0163
CTATGCCA	-0.0387

Sequence	PBM E-score
GGTTATAA	0.228
CAACCACG	0.0486
AACCAAGG	0.0313
GCCTCAAA	0.0112
AAAGGCGT	-0.174
CGAGGATA	0.0758
ATCGTGGA	0.0643
GAAGCGAC	0.019
AAGCCTAT	0.138
CAGGCAGA	-0.0752
GTAGCTAA	0.0101
CTAGCGGC	-0.329
AGTAGGCC	-0.101
AACTGGTC	-0.0358
GCCGCGTA	-0.071
AGAGGGTG	-0.0942
CATGCTCA	0.12
AGCCTTCG	-0.168
CATGCCTC	0.02
CTAAGTGC	-0.119
CCATAGGG	-0.105
AGATGATC	0.119
GTCTGCGA	-0.0683
AGTCGTCG	-0.221
CGTCATTC	0.252

Sequence	PBM E-score
TGCAAGCA	-0.118
ACCAGCTA	-0.0702
ATTATCCC	0.151
ATGCGCAA	0.128
CGTGAAAG	-0.0748
ACTGCCCA	0.0013
GCTCCCAA	-0.213
AAACGTGA	-0.0765
AGCAGTTG	0.0675
CATTTCAG	-0.0429
GCCGCAGA	-0.0338
GCTCGCCA	-0.0372
ACTGGTAA	0.191
CACAGGCG	-0.13
AAGCCAAT	0.122
TAACAAAA	0.198
TCGTTGCA	-0.0774
GGCCACAC	-0.169
ACATTGTA	0.128
AATGCTTG	-0.0706
TTGCTAAA	-0.0962
GTCCGCCA	-0.249
GCAGATGC	-0.0639
AGAGTTGC	0.0538
ACGTGGCT	-0.152

Pulled one by one from the entries so far (7):
Sequence	PBM E-score
GTCCGCCA	-0.249
GCAGATGC	-0.0639
ATTATCCC	0.151
CGTGAAAG	-0.0748
AGCAGTTG	0.0675
ACTGCCCA	0.0013
CACAGGCG	-0.13

Reprinted from the listing for reference:
Sequence	PBM E-score
CTGGAGCC	-0.204
AATGGGGT	0.101
GGTTAAAC	-0.00883
CGTAGTTC	-0.162
GCCGAGGC	0.00479

(list continues)

Sequence	PBM E-score
GGAAACAC	0.0343
GCAAGGCA	0.0569
CTCGATTA	0.264
CGGGCGTC	0.0379
CGGAGAGC	-0.194
AGCTAAAT	-0.0194
GAAAACTA	0.178
ATATGGCC	-0.0701
CAAGGGTA	-0.208
ATTGCCTC	0.0665
CGATTGTA	0.196
AACACACG	-0.0605
TGCACCAA	-0.0858
AACGTTGA	0.0171
TATGTTCA	0.0974
AGGCTGCC	-0.293
CATACACC	-0.0238
CTCTCCAC	-0.188
AATCCAAC	-0.00257
ACGTTTCT	-0.0432
GCGAATGA	0.19
AGGTGGTA	0.0927
CACCTCTG	-0.0984
ACGACCCT	-0.196
CCTATTAC	0.0787

Sequence	PBM E-score
CGCGATCA	0.172
AAGCAAAG	-0.0332
AGATGCCC	0.087
CTGTGTCA	-0.0655
GCAGTAGA	-0.124
CGCTTATA	0.246
ACTTTCTG	0.00156
CGACGAAC	-0.0436
CGTCTTTC	-0.104
AGACTCCT	-0.0844
CGCCGGCC	-0.174
ACGCTTCG	-0.0426
ATCTAGGC	-0.105
TCACGAAA	0.194
CACTCCAC	0.0209
AGACTCCC	-0.324
TGCCTCAA	0.015
ACCGCGGC	0.139
CAACCTGC	0.00016
ACTACCGC	-0.0496
AAGGCTCG	-0.281
CCCTTCGG	-0.18
ACTGGACC	-0.291
GAATGTGC	-0.00204
ATCATGAA	0.133

Sequence	PBM E-score
CAGCGCAA	0.0372
AAGACATG	0.0683
GGCCCAAA	-0.0329
CGGGCCAG	-0.157
CTTGGGGC	0.0896
CAGTCCAG	-0.311
AGATAAAC	0.166
AGCCTCTC	-0.275
CCACACCG	-0.03
CCTGCGAC	-0.233
CAGCAGCG	-0.103
CCATGTGC	0.0668
AATGCAGT	0.026
ACTGGATG	-0.0293
AGCCAGGG	-0.218
GACCCCAA	-0.127
AGATGTTG	0.0226
ATGAGGGA	-0.0286
AGTTTAAA	0.138
GCAGAAGC	-0.101
GACGCTCA	-0.0931
AGGTCGGG	-0.166
AGCTAGCA	-0.168
ACAGTTAT	0.106
ACCACGCT	-0.223

Sequence	PBM E-score
ATAGGTTG	0.0216
GAGAGTAA	0.195
ACAATGTA	0.0632
TCACATAA	0.31
ATCGTTAC	-0.0627
GCCCGAGC	-0.0307
ATAAAATC	0.122
ACGAGGTG	-0.00102
AGTCACTA	0.137
GCCCGTTA	-0.134
CCCCCATA	-0.314
GCAATACA	0.274
ATATGCTG	0.0407
CAAGATGC	0.163
ACATCGCA	-0.0772
GCTTCGTA	0.011
CATCAGGC	-0.0323
CAAGTATC	0.0508
ACGGGCGC	-0.0765
AAGCGTAT	0.106
AATTAACT	0.165
AAGCGCTA	0.0932
CGCGGGCA	0.108
CCTCGCCG	-0.322
CAGCCTAC	-0.0257

Single values from above:
PBM E-score, TCACATAA is entered as 0.31
PBM E-score, ACGAGGTG is entered as -0.00102
PBM E-score, ACATCGCA is entered as -0.0772

Continued:

Sequence	PBM E-score
CTCTACGC	-0.0188
AGCACGTA	-0.00897
GCCCCTAA	-0.0658
CAGTGTGG	-0.0748
CAAACTGC	0.111
GATACGCC	-0.122
ACGCGTAC	-0.101
CTTACGAC	0.103
CGCATTAG	-0.0118
AAAGTCAG	0.0619
AAAACAAG	0.16
CGTGCGAG	-0.00325
ATTTGGCC	0.0721
CAGCTCAA	0.098
AACGCCTT	-0.104
ATCATAAT	0.327
CGGCGTTA	-0.0879
CTCGGTTC	-0.237
AGAGTGCT	0.00224
AAGTATTC	0.203
ACAGCTCA	-0.124
TACGTAGA	0.102
ATAGACAG	0.0499
CATTCCGC	0.076
GGATATAC	0.137

Sequence	PBM E-score
AAATCACC	0.249
GTCAAAGA	-0.0368
GCACAGGA	-0.0338
AATCCGCT	0.116
AACTTGAA	0.161
CTTTCTGA	-0.0676
CGGCGTGA	-0.0351
AGGGTGCA	-0.148
CCTACCAA	0.0364
CCCTGCGA	-0.0749
CGTCGCAA	0.183
CGTCGGCA	-0.102
CCGGTGCA	-0.187
AGCTGTAA	-0.0224
CCTTTGAG	-0.295
CTCATATC	0.0427
CCGGCAGG	-0.11
TATGGTCA	0.063
ATGATGCC	-0.052
ATTCACGC	0.0247
GACTACGA	-0.0545
GAAGCCCA	-0.128
GATGTACC	0.113
AACCGGGC	-0.234
AGTTATGG	0.0606

Sequence	PBM E-score
CCCTTCAG	-0.137
CACCGATA	0.0787
ATCTCAGA	-0.0736
TATAAGGA	0.135
TAAGTAGA	0.05
CACCTAAG	0.139
GATAGACC	-0.0396
ATAAAAAC	0.166
CACCAGGC	-0.173
CCTCCTAA	-0.207
CAGTTTGC	0.0891
CATAAAGG	-0.129
CAGTCTCC	-0.0362
ATTGAGCC	0.111
AAAAACCC	0.00593
CTAGTGTA	0.111
GCAGCTGC	-0.0527
TCGGCGCA	0.0671
GATGCTCC	-0.2
